Assay results reported in publication PMC3125270.
These are yes or no findings as the source states them, for the method shown. Binding seen in cells or lysates may run through a third protein. A result given as binding can be weak or reduced; the word gives no strength. Where a sequence is shown, tags or fusion partners need not be part of it.

Biological target: T1, N-Strep/Flag-Her3, full length (zebrafish) (UniProt Q90465)
T1 sequence: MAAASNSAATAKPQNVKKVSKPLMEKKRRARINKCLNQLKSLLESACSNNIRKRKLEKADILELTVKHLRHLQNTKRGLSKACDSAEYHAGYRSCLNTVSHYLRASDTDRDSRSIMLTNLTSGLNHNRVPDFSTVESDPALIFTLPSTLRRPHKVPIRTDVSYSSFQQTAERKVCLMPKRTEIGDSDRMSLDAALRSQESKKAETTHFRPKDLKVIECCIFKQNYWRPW
Experiment: pull-down; co-affinity purification: N-SF-Her3 and myc-Her8a co-expressed in HEK293T; cleared lysate (TBS, 0.5% NP-40) on Strep-Tactin resin 2 h, eluted with desthiobiotin; blots with anti-FLAG and anti-Myc

Myc-tagged Her8a, full length (zebrafish)
binding: binds
